Measurements taken from paper PMC1557783.
No constants are given. Whether binding was seen depends on the method and setting. In cells and extracts the contact can be indirect. Some entries that bind do so weakly or less than the wild type.

Sequences of proteins named here, by UniProt entry; tags and fusion partners are left off.
UniProt Q32KD4: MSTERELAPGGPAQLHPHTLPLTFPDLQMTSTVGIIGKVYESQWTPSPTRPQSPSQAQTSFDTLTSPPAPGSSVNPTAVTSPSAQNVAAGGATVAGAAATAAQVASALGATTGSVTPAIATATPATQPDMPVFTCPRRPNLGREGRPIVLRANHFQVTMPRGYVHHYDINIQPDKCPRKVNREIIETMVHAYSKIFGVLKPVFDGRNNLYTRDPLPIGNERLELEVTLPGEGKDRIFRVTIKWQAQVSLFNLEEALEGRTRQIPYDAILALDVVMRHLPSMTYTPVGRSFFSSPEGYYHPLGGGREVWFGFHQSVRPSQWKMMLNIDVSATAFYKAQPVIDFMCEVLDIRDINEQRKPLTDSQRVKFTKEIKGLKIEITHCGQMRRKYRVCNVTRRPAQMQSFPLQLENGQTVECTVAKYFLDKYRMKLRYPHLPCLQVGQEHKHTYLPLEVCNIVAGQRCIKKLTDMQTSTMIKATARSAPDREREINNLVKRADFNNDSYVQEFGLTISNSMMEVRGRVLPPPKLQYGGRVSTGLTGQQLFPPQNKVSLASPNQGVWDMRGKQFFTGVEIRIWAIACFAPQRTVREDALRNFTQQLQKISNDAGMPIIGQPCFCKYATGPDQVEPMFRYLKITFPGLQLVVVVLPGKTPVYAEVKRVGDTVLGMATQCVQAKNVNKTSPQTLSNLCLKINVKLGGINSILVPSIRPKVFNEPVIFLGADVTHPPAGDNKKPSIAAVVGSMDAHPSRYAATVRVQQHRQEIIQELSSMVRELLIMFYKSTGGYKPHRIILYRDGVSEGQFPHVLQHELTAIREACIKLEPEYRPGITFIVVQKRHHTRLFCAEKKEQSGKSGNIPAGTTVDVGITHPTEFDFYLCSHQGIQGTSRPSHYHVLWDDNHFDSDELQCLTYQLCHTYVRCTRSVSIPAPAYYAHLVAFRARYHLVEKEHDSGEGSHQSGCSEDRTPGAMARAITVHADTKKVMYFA

Target: T1, Argonaute 2 (Drosophila melanogaster (endogenous in embryos)) (UniProt Q9VUQ5)
T1 sequence: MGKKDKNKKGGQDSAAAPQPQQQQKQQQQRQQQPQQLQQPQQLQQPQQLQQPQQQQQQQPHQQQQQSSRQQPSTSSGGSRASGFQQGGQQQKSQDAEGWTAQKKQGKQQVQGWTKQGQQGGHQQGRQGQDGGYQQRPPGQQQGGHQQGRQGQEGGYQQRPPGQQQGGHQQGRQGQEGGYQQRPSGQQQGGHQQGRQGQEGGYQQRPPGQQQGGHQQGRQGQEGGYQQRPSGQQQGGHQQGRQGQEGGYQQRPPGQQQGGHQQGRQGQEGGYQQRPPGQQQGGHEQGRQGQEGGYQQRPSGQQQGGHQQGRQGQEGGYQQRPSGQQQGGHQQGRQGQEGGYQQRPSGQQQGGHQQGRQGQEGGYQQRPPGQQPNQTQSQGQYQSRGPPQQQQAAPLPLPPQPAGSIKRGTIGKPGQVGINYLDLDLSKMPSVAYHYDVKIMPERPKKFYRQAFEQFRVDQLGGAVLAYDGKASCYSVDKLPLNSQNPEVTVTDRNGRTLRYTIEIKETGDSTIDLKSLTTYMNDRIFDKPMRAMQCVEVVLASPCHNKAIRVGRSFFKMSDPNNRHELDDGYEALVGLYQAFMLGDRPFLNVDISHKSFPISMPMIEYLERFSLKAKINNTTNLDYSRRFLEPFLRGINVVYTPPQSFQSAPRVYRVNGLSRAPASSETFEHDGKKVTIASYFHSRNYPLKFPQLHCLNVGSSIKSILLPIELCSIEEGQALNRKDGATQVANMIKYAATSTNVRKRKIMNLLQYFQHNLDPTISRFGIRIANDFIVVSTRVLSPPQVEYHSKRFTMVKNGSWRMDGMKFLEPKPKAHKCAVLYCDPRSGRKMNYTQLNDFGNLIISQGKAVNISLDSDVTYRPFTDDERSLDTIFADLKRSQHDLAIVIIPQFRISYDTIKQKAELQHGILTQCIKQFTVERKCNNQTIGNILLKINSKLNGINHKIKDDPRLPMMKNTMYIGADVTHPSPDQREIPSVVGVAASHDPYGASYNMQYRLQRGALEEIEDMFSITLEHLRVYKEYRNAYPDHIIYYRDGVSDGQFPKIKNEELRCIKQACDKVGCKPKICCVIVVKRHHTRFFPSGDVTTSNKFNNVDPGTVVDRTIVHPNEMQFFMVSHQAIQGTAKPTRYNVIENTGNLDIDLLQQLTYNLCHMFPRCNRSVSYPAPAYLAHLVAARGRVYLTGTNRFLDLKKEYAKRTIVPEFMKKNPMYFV
Assay: co-IP; rabbit anti-Ago2Cterm covalently bound to coupling gel (AminoLink Plus); wild-type embryo extract, 500 ug protein, CHAPS lysis buffer (20 mM Tris pH 8, 150 mM NaCl, 10% glycerol, 2 mM EDTA, 10 mM CHAPS), 1.5 h at 4 C; Western blot with anti-Ago1; anti-GFP antibody as control

- binding: binds
Substance: Argonaute 1 (from UniProt Q32KD4 1-984)
